Our source for the IC50 values is patent EP0767778B1, “1-PHENOXY-3-N-ALKYLAMINOPROPAN-2-OL HALOGEN DERIVATIVES USEFUL AS MYOCARDIAL beta [sequence] RECEPTOR MARKERS AND AS beta-BLOCKING AGENTS” (CIS BIO INTERNATIONAL, priority 1994, dated 1996).

The assay concerns the target récepteurs β adrénergiques. As to the kind of experiment: displacement of [^3H]CGP 12177 previously bound on newborn rat cardiomyocytes. Type of assay: binding. To be noted: [^3H]CGP 12177 5.10^-9M, 30 minutes d'incubation; cardiomyocytes de rats nouveau-nés; read-out: CI50 (the source's name). How it is done:
Dans cet exemple, on teste l'affinité du composé 6 marqué avec ^123I vis-à-vis des récepteurs β adrénergiques.
On étudie sur cardiomyocytes de rats nouveau-nés la capacité du composé 6 à déplacer le [^3H]CGP 12177 préalablement fixé sur les récepteurs.
A la dose de 5.10^-9M et après 30 minutes d'incubation, le [^3H]CGP 12177 occupe tous les récepteurs β adrénergiques des cardiomyocytes.

Turning to `CC(C)NCC(O)COc1cccc2ccccc12` (stereo not shown) [propranolol], the IC50 was 190 nM.
